{"sequences": {"note": "Amino acid sequences for entries named in this document (tags omitted).", "UniProt Q62976": "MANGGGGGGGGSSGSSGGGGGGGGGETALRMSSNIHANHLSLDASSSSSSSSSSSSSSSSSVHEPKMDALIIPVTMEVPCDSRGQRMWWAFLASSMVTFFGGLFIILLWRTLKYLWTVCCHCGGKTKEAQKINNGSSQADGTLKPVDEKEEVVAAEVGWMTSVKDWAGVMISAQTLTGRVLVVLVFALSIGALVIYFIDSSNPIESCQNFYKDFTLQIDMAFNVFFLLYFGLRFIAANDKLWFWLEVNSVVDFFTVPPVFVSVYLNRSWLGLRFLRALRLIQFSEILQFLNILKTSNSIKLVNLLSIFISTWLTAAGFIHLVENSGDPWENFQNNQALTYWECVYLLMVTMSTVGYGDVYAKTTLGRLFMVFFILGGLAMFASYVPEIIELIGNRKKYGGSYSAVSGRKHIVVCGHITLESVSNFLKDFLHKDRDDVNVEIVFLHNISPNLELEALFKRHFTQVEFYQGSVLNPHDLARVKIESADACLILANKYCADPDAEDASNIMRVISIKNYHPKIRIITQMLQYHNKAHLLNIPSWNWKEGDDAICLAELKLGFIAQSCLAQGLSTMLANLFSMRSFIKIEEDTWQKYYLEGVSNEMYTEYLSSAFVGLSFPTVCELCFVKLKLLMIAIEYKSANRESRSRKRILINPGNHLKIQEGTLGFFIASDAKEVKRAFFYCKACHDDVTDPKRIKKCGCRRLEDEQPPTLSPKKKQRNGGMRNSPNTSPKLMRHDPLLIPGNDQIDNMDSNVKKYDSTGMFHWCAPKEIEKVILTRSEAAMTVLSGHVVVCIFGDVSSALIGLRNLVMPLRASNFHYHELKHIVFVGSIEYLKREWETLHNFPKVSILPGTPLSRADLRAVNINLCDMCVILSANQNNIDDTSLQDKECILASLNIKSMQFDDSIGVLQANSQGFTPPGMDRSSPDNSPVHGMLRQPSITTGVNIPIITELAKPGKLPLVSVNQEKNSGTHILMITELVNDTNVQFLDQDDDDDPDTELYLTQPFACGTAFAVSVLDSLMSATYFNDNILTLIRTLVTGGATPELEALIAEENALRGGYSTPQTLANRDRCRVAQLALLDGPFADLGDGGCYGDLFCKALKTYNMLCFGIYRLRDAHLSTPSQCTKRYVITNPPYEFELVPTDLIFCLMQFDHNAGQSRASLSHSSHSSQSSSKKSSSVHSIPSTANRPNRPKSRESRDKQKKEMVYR", "UniProt P29994": "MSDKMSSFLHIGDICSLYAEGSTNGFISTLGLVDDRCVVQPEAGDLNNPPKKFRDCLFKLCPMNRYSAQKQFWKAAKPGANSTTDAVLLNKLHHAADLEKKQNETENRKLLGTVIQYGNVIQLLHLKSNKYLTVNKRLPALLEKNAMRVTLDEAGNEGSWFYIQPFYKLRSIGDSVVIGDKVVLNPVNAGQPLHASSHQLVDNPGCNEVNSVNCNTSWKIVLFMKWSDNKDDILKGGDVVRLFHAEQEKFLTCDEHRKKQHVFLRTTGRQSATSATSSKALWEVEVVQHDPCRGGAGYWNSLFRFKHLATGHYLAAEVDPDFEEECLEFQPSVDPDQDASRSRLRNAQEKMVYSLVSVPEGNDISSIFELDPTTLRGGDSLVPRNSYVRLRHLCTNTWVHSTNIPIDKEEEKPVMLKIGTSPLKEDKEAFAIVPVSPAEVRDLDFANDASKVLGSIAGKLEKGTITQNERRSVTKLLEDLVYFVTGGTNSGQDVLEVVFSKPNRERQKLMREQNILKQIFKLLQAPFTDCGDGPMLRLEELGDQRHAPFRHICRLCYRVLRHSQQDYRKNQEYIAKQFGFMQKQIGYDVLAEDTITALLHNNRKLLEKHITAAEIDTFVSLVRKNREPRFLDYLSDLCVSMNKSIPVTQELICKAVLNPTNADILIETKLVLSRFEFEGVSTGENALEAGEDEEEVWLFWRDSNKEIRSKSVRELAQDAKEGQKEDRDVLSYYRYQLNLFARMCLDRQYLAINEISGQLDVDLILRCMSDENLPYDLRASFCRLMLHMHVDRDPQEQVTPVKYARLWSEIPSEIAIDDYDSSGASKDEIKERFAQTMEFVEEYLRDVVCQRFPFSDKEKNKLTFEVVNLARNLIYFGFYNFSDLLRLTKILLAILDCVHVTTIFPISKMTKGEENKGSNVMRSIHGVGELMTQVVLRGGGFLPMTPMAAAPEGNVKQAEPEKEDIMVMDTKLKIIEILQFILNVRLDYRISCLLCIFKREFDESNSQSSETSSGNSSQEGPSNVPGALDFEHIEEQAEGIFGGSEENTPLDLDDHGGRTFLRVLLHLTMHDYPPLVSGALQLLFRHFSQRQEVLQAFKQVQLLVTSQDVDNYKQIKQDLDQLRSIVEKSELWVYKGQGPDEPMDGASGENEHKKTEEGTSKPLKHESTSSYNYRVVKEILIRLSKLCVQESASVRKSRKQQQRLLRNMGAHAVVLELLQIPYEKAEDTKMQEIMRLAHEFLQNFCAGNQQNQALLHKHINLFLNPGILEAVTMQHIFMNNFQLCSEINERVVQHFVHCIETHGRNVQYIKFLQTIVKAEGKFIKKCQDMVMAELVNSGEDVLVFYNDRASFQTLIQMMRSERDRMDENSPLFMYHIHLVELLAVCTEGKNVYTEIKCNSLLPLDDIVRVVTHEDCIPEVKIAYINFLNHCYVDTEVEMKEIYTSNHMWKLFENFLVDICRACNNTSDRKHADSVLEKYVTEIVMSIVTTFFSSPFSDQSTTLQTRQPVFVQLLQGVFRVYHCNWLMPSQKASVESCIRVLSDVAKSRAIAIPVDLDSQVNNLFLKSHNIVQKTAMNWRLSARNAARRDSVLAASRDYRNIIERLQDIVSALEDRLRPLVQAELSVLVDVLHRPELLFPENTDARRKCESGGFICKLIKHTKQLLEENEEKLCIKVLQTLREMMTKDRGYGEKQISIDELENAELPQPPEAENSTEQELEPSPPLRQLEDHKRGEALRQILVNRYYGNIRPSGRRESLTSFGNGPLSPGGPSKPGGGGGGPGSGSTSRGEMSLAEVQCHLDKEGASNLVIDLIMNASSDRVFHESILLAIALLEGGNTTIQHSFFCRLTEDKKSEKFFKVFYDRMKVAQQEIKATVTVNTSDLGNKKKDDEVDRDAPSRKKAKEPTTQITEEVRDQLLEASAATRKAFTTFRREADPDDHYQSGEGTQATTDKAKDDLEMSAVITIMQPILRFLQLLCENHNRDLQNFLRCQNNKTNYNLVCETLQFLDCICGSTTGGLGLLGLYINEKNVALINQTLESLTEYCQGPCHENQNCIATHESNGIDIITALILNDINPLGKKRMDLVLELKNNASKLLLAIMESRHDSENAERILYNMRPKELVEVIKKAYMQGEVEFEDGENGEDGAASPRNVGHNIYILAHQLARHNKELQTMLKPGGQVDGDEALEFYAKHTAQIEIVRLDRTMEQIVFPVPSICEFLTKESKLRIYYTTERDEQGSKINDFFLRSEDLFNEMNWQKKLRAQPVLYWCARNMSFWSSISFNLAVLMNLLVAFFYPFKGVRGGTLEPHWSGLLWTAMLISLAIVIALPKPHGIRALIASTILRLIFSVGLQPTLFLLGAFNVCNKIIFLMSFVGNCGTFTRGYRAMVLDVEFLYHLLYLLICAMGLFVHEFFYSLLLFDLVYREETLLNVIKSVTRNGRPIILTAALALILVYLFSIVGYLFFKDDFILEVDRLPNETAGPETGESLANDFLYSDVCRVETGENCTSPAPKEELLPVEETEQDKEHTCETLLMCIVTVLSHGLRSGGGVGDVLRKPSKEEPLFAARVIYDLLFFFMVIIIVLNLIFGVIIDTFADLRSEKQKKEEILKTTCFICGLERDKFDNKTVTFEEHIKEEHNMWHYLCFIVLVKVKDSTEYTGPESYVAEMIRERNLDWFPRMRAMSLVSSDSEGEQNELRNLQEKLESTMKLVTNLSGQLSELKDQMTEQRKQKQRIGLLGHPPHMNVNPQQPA"}, "source": "paper PMC10341547", "biological_target": "large-conductance calcium-activated potassium (BKCa) channel alpha subunit (rat (endogenous in mesenteric arteries)) (UniProt Q62976)", "test": "co-IP; mesenteric arteries of SHR and WKY rats lysed in non-denaturing lysis buffer; 1.5 mg lysate with 8 ug rabbit polyclonal anti-KCNMA1 antibody for 2 h, protein A/G PLUS-agarose for 12 h at 4 °C, washed three times with PBS; blot with mouse monoclonal anti-IP3R1; weaker band from SHR than from WKY", "note": "These are yes or no findings as the source states them, for the method shown. Binding seen in cells or lysates may run through a third protein. Some results given as binding are weak or reduced against the parent protein; the word gives no strength."}
{"substance": "inositol 1,4,5-trisphosphate receptor 1 (from UniProt P29994 1-2750)", "values": [{"measurement": "binding", "result": "binds"}]}
